No constants are given. Whether binding was seen depends on the method and setting. Some results given as binding are weak or reduced against the parent protein; the word gives no strength. Where a sequence is shown, tags or fusion partners need not be part of it.
Target: T1, laforin WT (LexA fusion) (human) (UniProt O95278)
T1 sequence: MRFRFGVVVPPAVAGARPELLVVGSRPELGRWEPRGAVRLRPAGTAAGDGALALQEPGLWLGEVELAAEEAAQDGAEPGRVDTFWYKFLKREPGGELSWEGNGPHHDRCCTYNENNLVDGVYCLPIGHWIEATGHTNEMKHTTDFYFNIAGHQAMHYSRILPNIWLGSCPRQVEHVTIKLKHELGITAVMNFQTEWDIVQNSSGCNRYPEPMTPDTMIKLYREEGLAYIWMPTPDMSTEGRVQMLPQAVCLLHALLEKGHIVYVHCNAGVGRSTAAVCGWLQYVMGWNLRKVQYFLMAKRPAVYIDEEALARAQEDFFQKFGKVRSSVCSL
Experiment: two-hybrid; LexA-laforin (pEG202) with Gal4 activation domain-malin or -PTG (pACT2) in S. cerevisiae; beta-galactosidase activity in yeast cell extract, in Miller Units

B1: protein targeting to glycogen (Gal4 activation domain fusion) (natural protein, UniProt Q9UQK1 1-317, looked up)
chain: MSCTRMIQVLDPRPLTSSVMPVDVAMRLCLAHSPPVKSFLGPYDEFQRRHFVNKLKPLKSCLNIKHKAKSQNDWKCSHNQAKKRVVFADSKGLSLTAIHVFSDLPEEPAWDLQFDLLDLNDISSALKHHEEKNLILDFPQPSTDYLSFRSHFQKNFVCLENCSLQERTVTGTVKVKNVSFEKKVQIRITFDSWKNYTDVDCVYMKNVYGGTDSDTFSFAIDLPPVIPTEQKIEFCISYHANGQVFWDNNDGQNYRIVHVQWKPDGVQTQMAPQDCAFHQTSPKTELESTIFGSPRLASGLFPEWQSWGRMENLASYR
notes: protein targeting to glycogen (PTG); also called PTG; source: yeast two-hybrid fusion (S. cerevisiae, pACT2)
  binding: binds
